# PubChem BioAssay AID504744, Drosophila RNAi Screening Center – 2011
# Screen: 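Uncover factors, including feedback loops, that control dAkt activation in fly cells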 (primary screen)
# Cells: Drosophila Kc167 cells
# Reagents: long dsRNA against Drosophila genes, 250 ng dsRNA per well of a 384-well plate
# Timing: 3 days of knock-down, then overnight serum-free starvation before stimulation
# Conditions: bovine insulin at 387 nM for 10 minutes after 12 h without serum
# Measured: 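Per-well phospho-dAkt level from an in-cell fluorescent antibody stain, divided by a DNA-dye signal; log2 residuals turned into z-scores that take cell number into account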
# Call rule: 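Under insulin, a gene counts as a hit if the average z-score of two replicates lies above 2.5 or below -2.5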
# The deposit covers about 23,000 reagents; this is a random part of those with a known target gene and a result. Of all reagents, 98 (0.43%) got an active call. 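Only hit calls are given; the phospho-dAkt signals, z-scores and hit direction were not deposited.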 The numbers tell different reagents against one gene apart. A plus sign joins genes that one reagent is predicted to hit.
Gene,reagent no.,outcome
Vps39,1,inactive
Eb1,1,inactive
CG6051,1,inactive
Polr2B,1,inactive
bug,1,inactive
Mal-A6,1,inactive
CG11345,1,inactive
RagA-B,1,inactive
CG32855,1,inactive
CG1738,1,inactive
DCTN3-p24,1,inactive
Spn28Da,1,inactive
Nuf2,1,inactive
CG42808 + CG42807,1,inactive
CG42808 + CG42807,2,inactive
pds5,1,inactive
CG15564,1,inactive
CG11454,1,inactive
CG31337,1,inactive
svp,1,inactive
svp,2,inactive
svp,3,inactive
CG33627,1,inactive
CG8564,1,inactive
sax,1,inactive
Ugt49C1,1,inactive
CG7309,1,inactive
Nep2,1,inactive
Nep2,2,inactive
Mt2,1,inactive
CG31735,1,inactive
CG16926,1,inactive
Reps,1,inactive
Ppt2,1,inactive
Nhe1,1,inactive
Or83a,1,inactive
Tsen2,1,inactive
CG12213,1,inactive
CG12213,2,inactive
CG33339,1,inactive
CG8172,1,inactive
CG8172,2,inactive
CG33635,1,inactive
Marf,1,inactive
Snx6,1,inactive
Tim17b1,1,inactive
bic,1,inactive
CG3368,1,inactive
Ance,1,inactive
c(2)M,1,inactive
Dop1R2,1,inactive
Dop1R2,2,inactive
Arfip,1,inactive
Nedd8,1,inactive
ocm,1,inactive
Ir56b,1,inactive
haf,1,inactive
galene,1,inactive
galene,2,inactive
Gli,1,inactive
CG6511,1,inactive
CG18223,1,inactive
Pomp,1,inactive
Hibch,1,inactive
ClC-c,1,inactive
Ugt37A1,1,inactive
Eaat1,1,inactive
Ugt303A1,1,inactive
AdoR,1,inactive
CG1737,1,inactive
Prosbeta2,1,inactive
Spred,1,inactive
SPARC,1,inactive
Crys,1,inactive
CG18011,1,inactive
CG18011,2,inactive
CG14564,1,inactive
CG14564,2,inactive
tsg,1,inactive
Art9,1,inactive
D2hgdh,1,inactive
Jon99Fii,1,inactive
Tis11,1,inactive
Uhg3,1,inactive
CG32795,1,inactive
CG32795,2,inactive
CG32588,1,inactive
CG17528,1,inactive
CG7653,1,inactive
hppy,1,inactive
hppy,2,inactive
hppy,3,inactive
CG9302,1,inactive
Grl62a,1,inactive
CycB,1,inactive
CSN5,1,inactive
CSN5,2,inactive
DAAM,1,inactive
CG12219,1,inactive
CG13690,1,inactive
CG7567,1,inactive
Ih,1,inactive
Gr9a,1,inactive
CG42458,1,inactive
Rpp21,1,inactive
CG13870,1,inactive
Oseg2,1,inactive

A portion taken from the entries so far, for reference:
Gene,reagent no.,outcome
svp,3,inactive
CG33627,1,inactive
CG8564,1,inactive
sax,1,inactive
Ugt49C1,1,inactive
CG7309,1,inactive
Nep2,1,inactive
Nep2,2,inactive
Mt2,1,inactive
CG31735,1,inactive
CG16926,1,inactive
Reps,1,inactive
Ppt2,1,inactive
Nhe1,1,inactive
